Measured values as given in paper doi:10.1101/2020.03.02.973859.
No constants are given. Whether binding was seen depends on the method and setting. Binding seen in cells or lysates may run through a third protein. Some results given as binding are weak or reduced against the parent protein; the word gives no strength.

Sequences of proteins named here, by UniProt entry; tags and fusion partners are left off.
UniProt Q4ACU6: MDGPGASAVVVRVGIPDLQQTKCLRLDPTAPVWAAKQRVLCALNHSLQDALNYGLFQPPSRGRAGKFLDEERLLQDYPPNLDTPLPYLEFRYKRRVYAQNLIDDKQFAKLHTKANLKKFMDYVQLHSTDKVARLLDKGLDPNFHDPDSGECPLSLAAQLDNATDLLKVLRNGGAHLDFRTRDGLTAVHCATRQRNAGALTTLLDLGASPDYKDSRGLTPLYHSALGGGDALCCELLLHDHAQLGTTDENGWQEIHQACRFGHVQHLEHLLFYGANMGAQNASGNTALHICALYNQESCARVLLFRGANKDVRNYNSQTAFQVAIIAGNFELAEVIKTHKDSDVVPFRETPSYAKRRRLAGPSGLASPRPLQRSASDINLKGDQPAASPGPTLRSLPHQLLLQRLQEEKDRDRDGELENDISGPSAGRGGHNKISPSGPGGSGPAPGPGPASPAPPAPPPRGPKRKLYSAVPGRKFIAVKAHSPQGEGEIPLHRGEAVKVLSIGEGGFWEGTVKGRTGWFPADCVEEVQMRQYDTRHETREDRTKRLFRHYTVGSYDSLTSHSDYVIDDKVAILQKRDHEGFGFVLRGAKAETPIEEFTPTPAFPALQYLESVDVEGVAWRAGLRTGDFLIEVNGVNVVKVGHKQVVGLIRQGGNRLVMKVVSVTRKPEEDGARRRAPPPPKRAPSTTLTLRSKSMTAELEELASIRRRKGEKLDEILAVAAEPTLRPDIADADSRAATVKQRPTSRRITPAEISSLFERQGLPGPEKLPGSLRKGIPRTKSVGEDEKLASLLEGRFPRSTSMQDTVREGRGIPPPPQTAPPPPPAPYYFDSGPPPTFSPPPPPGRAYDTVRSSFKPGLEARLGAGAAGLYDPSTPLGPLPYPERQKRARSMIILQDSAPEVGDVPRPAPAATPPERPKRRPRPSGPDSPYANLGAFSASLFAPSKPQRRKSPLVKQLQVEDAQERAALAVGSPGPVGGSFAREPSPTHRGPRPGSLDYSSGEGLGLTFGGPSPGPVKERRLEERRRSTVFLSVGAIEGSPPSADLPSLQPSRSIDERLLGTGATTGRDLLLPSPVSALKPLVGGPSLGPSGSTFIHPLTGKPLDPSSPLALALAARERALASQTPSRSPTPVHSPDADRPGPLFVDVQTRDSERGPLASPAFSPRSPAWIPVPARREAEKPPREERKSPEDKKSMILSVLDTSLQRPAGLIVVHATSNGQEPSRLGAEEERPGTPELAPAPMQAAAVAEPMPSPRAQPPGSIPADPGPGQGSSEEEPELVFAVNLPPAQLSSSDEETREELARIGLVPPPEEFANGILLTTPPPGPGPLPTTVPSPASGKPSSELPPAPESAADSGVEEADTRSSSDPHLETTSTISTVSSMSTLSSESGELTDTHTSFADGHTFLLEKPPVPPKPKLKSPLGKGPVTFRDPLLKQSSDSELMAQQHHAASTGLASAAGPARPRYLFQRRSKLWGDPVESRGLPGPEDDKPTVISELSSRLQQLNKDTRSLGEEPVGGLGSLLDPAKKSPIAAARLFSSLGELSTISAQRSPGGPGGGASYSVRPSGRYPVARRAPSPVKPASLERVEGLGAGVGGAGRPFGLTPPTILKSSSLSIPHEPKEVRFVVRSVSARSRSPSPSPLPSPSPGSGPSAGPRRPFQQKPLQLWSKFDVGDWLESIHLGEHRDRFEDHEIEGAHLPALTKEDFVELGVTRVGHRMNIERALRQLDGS
UniProt Q62261: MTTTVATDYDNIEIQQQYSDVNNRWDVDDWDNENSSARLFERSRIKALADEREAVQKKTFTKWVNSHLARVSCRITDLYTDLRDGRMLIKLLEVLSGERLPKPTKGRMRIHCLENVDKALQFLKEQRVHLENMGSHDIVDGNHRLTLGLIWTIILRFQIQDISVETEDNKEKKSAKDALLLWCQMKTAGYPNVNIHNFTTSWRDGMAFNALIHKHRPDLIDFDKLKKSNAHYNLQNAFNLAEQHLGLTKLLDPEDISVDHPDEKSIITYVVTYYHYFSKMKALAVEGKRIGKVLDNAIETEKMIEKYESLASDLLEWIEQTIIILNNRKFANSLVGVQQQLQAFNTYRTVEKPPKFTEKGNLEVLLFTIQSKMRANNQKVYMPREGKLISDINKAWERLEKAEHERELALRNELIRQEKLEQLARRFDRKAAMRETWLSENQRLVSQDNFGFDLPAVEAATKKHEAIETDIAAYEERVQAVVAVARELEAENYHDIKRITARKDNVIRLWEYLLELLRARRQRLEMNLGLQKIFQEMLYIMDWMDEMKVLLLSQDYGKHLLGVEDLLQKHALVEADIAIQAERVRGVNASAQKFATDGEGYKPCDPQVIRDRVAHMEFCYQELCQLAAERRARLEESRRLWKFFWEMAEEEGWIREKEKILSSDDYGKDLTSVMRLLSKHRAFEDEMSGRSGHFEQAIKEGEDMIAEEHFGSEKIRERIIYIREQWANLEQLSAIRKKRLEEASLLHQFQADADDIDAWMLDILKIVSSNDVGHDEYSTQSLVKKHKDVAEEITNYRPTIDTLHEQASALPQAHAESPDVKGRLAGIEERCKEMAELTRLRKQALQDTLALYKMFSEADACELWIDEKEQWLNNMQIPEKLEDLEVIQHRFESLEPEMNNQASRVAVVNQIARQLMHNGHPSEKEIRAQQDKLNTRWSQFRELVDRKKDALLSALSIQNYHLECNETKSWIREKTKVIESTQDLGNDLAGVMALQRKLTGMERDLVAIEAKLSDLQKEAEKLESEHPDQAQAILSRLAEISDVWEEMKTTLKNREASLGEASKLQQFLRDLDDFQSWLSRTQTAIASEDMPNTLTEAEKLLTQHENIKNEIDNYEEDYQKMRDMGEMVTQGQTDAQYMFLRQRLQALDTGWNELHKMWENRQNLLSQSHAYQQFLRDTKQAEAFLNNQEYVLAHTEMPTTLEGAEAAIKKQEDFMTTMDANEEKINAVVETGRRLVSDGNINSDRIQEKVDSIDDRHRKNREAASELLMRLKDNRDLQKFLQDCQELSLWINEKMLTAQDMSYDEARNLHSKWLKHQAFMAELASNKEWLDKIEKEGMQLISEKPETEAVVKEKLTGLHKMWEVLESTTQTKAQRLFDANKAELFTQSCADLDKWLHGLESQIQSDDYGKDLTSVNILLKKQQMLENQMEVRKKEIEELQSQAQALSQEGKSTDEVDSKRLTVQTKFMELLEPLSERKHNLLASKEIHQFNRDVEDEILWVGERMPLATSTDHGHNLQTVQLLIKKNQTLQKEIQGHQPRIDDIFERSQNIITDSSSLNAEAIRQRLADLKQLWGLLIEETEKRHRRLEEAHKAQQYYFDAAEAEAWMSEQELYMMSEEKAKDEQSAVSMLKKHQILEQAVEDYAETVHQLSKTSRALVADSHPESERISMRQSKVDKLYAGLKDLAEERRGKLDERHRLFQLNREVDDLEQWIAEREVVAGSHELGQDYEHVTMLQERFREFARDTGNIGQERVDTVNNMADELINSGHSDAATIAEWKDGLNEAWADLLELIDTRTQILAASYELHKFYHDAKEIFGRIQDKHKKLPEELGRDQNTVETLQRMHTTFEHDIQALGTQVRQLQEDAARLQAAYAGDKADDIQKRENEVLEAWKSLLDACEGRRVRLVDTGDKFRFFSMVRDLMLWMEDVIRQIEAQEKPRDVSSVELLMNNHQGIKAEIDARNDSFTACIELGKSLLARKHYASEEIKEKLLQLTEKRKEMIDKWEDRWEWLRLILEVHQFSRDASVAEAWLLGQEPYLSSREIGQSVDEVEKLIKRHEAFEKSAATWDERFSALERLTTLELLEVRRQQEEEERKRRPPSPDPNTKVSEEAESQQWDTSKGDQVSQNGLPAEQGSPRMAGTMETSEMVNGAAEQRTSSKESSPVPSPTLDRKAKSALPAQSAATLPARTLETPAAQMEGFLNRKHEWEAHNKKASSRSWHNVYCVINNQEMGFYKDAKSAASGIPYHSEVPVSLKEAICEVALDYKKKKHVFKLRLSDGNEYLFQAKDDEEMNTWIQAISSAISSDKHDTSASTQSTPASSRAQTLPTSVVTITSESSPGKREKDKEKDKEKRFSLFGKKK
UniProt B1AWN6: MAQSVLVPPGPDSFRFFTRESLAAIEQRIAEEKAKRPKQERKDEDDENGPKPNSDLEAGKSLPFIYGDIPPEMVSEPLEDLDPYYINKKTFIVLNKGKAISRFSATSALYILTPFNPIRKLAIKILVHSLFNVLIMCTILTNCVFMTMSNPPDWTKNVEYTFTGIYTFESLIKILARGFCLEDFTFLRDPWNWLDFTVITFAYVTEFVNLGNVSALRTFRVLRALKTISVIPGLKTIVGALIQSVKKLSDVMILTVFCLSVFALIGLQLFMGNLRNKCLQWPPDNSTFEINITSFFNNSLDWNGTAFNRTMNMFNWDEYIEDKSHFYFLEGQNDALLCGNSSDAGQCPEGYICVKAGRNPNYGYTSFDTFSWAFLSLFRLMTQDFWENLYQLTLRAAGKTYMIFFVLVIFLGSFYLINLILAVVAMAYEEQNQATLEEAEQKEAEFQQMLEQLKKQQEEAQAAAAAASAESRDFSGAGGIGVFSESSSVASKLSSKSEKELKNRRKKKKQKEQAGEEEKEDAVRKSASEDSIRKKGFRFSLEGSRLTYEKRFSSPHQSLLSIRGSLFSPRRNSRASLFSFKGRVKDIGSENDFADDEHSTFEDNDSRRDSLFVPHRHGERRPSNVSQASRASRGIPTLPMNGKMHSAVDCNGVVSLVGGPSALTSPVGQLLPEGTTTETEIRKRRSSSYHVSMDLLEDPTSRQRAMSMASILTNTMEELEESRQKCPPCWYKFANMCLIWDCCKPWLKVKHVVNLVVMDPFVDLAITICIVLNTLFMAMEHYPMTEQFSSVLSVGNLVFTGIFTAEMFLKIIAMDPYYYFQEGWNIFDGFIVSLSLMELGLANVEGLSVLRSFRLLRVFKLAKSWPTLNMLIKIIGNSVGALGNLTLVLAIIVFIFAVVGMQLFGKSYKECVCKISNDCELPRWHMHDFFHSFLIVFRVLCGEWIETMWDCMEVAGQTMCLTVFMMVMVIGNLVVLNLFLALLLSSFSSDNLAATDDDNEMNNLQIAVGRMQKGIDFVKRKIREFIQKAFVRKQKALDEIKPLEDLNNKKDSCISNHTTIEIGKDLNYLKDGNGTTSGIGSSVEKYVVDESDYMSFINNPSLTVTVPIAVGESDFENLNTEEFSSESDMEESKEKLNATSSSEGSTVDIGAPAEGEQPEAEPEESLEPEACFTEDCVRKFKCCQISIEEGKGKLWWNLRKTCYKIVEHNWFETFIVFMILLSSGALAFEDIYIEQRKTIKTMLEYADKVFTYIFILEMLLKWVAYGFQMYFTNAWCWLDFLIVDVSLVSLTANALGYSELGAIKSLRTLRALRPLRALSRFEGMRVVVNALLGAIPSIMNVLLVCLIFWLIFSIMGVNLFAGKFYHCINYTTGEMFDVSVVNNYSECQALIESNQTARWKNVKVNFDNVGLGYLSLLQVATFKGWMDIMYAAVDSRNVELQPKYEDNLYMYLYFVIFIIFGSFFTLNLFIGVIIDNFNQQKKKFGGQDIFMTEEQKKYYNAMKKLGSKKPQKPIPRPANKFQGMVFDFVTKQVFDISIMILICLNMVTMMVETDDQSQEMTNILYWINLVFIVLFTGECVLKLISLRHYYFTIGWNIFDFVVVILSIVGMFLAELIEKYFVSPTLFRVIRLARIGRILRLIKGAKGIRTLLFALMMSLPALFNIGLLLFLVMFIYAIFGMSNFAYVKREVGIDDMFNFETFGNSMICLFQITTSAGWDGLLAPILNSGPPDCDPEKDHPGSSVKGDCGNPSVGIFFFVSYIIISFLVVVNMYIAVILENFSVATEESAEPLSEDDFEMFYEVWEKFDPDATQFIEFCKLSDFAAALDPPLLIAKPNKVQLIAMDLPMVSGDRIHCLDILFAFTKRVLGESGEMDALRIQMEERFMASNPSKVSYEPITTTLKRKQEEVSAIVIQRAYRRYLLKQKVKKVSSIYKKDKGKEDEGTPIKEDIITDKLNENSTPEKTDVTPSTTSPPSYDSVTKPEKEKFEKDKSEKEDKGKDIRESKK

T1: K+/Cl- co-transporter KCC2 (mouse (endogenous in mouse forebrain)) (UniProt Q91V14)
T1 sequence: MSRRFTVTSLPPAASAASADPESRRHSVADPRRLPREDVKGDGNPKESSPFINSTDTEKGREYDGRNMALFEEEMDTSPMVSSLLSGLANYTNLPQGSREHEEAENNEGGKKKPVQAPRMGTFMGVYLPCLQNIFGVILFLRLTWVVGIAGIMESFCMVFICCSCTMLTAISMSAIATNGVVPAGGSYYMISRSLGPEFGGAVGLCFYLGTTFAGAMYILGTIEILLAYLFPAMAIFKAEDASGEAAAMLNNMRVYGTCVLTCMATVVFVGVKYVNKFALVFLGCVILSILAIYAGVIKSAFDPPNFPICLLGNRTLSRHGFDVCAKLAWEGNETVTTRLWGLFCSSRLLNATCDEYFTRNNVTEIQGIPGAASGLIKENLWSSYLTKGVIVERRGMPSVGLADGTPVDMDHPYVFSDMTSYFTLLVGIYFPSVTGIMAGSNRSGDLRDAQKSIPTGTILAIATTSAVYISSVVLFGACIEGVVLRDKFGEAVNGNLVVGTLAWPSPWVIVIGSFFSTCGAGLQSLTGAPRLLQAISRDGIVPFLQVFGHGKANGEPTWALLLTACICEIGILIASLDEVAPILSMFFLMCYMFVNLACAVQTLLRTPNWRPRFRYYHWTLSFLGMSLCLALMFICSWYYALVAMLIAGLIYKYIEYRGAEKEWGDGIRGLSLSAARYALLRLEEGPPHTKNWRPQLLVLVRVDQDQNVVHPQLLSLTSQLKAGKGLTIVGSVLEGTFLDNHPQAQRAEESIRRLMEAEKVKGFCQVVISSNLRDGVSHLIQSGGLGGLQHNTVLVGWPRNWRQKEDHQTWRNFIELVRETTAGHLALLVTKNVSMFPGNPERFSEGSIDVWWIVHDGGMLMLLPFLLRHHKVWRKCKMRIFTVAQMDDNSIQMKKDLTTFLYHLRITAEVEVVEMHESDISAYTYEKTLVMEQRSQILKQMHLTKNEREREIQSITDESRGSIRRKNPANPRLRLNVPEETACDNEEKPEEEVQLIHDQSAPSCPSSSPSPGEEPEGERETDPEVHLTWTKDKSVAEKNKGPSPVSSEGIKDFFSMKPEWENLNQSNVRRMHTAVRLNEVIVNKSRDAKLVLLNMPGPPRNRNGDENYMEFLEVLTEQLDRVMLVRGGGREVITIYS

B1: NCKAP1 (protein, UniProt P28660 1-1128)
chain: MSRSVLQPSQQKLAEKLTILNDRGVGMLTRLYNIKKACGDPKAKPSYLIDKNLESAVKFIVRKFPAVETRNNNQQLAQLQKEKSEILKNLALYYFTFVDVMEFKDHVCDLLNTIDVCQVFFDITVNFDLTKNYLDLTVTYTTLMILLSRIEERKAIIGLYNYAHEMTHGASDREYPRLGQMIVDYENPLKKMMEEFVPHSKSLSDALISLQMVYPRRNLSADQWRNAQLLSLISAPSTMLNPAQSDTMPCEYLSLDAMEKWIIFGFILCHGMLNTEATALNLWKLALQSSSCLSLFRDEVFHIHKAAEDLFVNIRGYNKRINDIRECKEAAVSHAGSMHRERRKFLRSALKELATVLSDQPGLLGPKALFVFMALSFARDEIIWLLRHADNMPKKSADDFIDKHIAELIFYMEELRAHVRKYGPVMQRYYVQYLSGFDAVVLNELVQNLSVCPEDESIIMSSFVNTMTSLSVKQVEDGEVFDFRGMRLDWFRLQAYTSVSKASLSLADHRELGKMMNTIIFHTKMVDSLVEMLVETSDLSIFCFYSRAFEKMFQQCLELPSQSRYSIAFPLLCTHFMSCTHELCPEERHHIGDRSLSLCNMFLDEMAKQARNLITDICTEQCTLSDQLLPKHCAKTISQAVNKKSKKQTGKKGEPEREKPGVESMRKNRLVVTNLDKLHTALSELCFSINYVPNMAVWEHTFTPREYLTSHLEIRFTKSIVGMTMYNQATQEIAKPSELLTSVRAYMTVLQSIENYVQIDITRVFNNVLLQQTQHLDSHGEPTITSLYTNWYLETLLRQVSNGHIAYFPAMKAFVNLPTENELTFNAEEYSDISEMRSLSELLGPYGMKFLSESLMWHISSQVAELKKLVVENVDVLTQMRTSFDKPDQMAALFKRLSSVDSVLKRMTIIGVILSFRSLAQEALRDVLSYHIPFLVSSIEDFKDHIPRETDMKVAMNVYELSSAAGLPCEIDPALVVALSSQKSENISPEEEYKIACLLMVFVAVSLPTLASNVMSQYSPAIEGHCNNIHCLAKAINQIAAALFTIHKGSIEDRLKEFLALASSSLLKIGQETDKTTTRNRESVYLLLDMIVQESPFLTMDLLESCFPYVLLRNAYHAVYKQSVTSSA
B2: CNTN1 (protein, UniProt P12960 21-1001)
chain: DFTWHRRYGHGVSEEDKGFGPIFEEQPINTIYPEESLEGKVSLNCRARASPFPVYKWRMNNGDVDLTNDRYSMVGGNLVINNPDKQKDAGVYYCLASNNYGMVRSTEATLSFGYLDPFPPEERPEVKVKEGKGMVLLCDPPYHFPDDLSYRWLLNEFPVFITMDKRRFVSQTNGNLYIANVESSDRGNYSCFVSSPSITKSVFSKFIPLIPIPERTTKPYPADIVVQFKDIYTMMGQNVTLECFALGNPVPDIRWRKVLEPMPSTAEISTSGAVLKIFNIQLEDEGLYECEAENIRGKDKHQARIYVQAFPEWVEHINDTEVDIGSDLYWPCIATGKPIPTIRWLKNGYSYHKGELRLYDVTFENAGMYQCIAENAYGSIYANAELKILALAPTFEMNPMKKKILAAKGGRVIIECKPKAAPKPKFSWSKGTEWLVNSSRILIWEDGSLEINNITRNDGGIYTCFAENNRGKANSTGTLVITNPTRIILAPINADITVGENATMQCAASFDPALDLTFVWSFNGYVIDFNKEITHIHYQRNFMLDANGELLIRNAQLKHAGRYTCTAQTIVDNSSASADLVVRGPPGPPGGLRIEDIRATSVALTWSRGSDNHSPISKYTIQTKTILSDDWKDAKTDPPIIEGNMESAKAVDLIPWMEYEFRVVATNTLGTGEPSIPSNRIKTDGAAPNVAPSDVGGGGGTNRELTITWAPLSREYHYGNNFGYIVAFKPFDGEEWKKVTVTNPDTGRYVHKDETMTPSTAFQVKVKAFNNKGDGPYSLVAVINSAQDAPSEAPTEVGVKVLSSSEISVHWKHVLEKIVESYQIRYWAGHDKEAAAHRVQVTSQEYSARLENLLPDTQYFIEVGACNSAGCGPSSDVIETFTRKAPPSQPPRIISSVRSGSRYIITWDHVVALSNESTVTGYKILYRPDGQHDGKLFSTHKHSIEVPIPRDGEYVVEVRAHSDGGDGVVSQVKISGVSTLS

The molecules below were run against T1, K+/Cl- co-transporter KCC2 (mouse (endogenous in mouse forebrain)) (assay: co-IP).

binding, binds:
SHANK3 (from UniProt Q4ACU6 1-1730)
SPTAN1 (from UniProt P16546 1-2472)
ITPR1 (from UniProt P11881 1-2749)
SPTBN1 (from UniProt Q62261 1-2363)
ANK2 (from UniProt Q8C8R3 1-3898)
SCN2A (from UniProt B1AWN6 1-2006)
B1
B2
